± gives the uncertainty stated by the source. Many entries were measured with a wide error.
Test: self-splicing fitness, log relative to wild type (ln ratio); higher = more splicing; Tetrahymena group I intron in knt gene, E. coli kanamycin selection, DiMSum; sequences stand for … in CUCUCU…GGAGGGAAAAGUUAUCAGGCAUGCACCUGGUAGCUAGUCUUUAAACCAAUAGAUUGCAUCGGUUUAAAAGGCAAGACCGUCAAAUUGCGGGAAAGGGGUCAACAGCCGUUCAGUACCAAGUCUCAGGGGAAACUUUGAGAUGGCCUUGCAAAGGGUAUGGUAAUAAGCUGACGGACAUGGUCCUAACCACGCAGCCAAGUCCUAAGUCAACAGAUCUUCUGUUGAUAUGGAUGCAGUUCACAGACUAAAUGUCGGUCGGGGAAGAUGUAUUCUUCUCAUAAGAUAUAGUCGGACCUCUCCUUAAUGGGAGCUAGCGGAUGAAGUGAUGCAACACUGGAGCCGCUGGGAACUAAUUUGUAUGCGAAAGUAUAUUGAUUAGUUUUGGAGUACUCGUGGUCG
Procedure, shortened: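 Six replicate transformations of E. coli BL21(DE3) with a pET-22b(+) library were grown overnight at 37°C or 30°C. The library randomised all eight P1ex-region intron nucleotides, the intron lying in the knt kanamycin-resistance gene, and plates were LB agar with or without 25 μg/mL kanamycin plus 100 μg/mL carbenicillin, 50 μM IPTG and 0.2% rhamnose. Pooled colonies were amplicon-sequenced on an Illumina HiSeq 2500, and fitness is the DiMSum error-weighted combination of wild-type-normalised replicate fold changes, kanamycin versus none.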

Sequence | self-splicing fitness (ln) (37 °C) | self-splicing fitness (ln) (30 °C)
AUGGAGCAAUAUUACGAACC | -1.88 ± 1.2 | –
GGGGAGCAAUAUUACGCAAC | 0.000402 ± 1.2 | –
AUUUAGCAAUAUUACGGUUG | -0.606 ± 0.58 | –
AGAGAGCAAUAUUACGUUUG | -3.54 ± 0.74 | –
GAGCAGCAAUAUUACGCACC | -1.82 ± 0.48 | -2.67 ± 0.39
GAAGAGCAAUAUUACGUCCG | -2.42 ± 0.54 | –
CGUCAGCAAUAUUACGGCUA | -0.751 ± 0.11 | -0.938 ± 0.11
AUAGAGCAAUAUUACGCUGU | 0.0295 ± 0.14 | -0.963 ± 0.11
UUUGAGCAAUAUUACGUUCA | – | -3.55 ± 0.6
UCCGAGCAAUAUUACGCGCC | -1.61 ± 0.84 | –
UGAGAGCAAUAUUACGGCAC | -2.59 ± 0.54 | -2.21 ± 1.1
AACGAGCAAUAUUACGAGUU | -2.1 ± 0.22 | -3.48 ± 0.32
UUCUAGCAAUAUUACGAUAG | – | -3.61 ± 0.52
UACGAGCAAUAUUACGGGCC | – | -4.32 ± 0.51
CAAUAGCAAUAUUACGUUCC | -2.13 ± 0.35 | -2.6 ± 0.26
AGCUAGCAAUAUUACGAAAC | – | -4.1 ± 0.61
UGCGAGCAAUAUUACGCUCU | -1.55 ± 0.53 | –
GUUAAGCAAUAUUACGGCAG | -2.76 ± 0.53 | -2.99 ± 0.61
UGAGAGCAAUAUUACGUGCC | – | -2.83 ± 0.56
AUGGAGCAAUAUUACGACUG | -3.19 ± 0.6 | –
UCUGAGCAAUAUUACGUACA | -0.96 ± 0.68 | -3.01 ± 0.83
CGUAAGCAAUAUUACGCAAC | -1.74 ± 0.79 | -4.51 ± 0.51
CUGCAGCAAUAUUACGCCAA | – | -3.1 ± 0.76
GUCGAGCAAUAUUACGAGAU | – | -4.44 ± 0.51

Sequence | self-splicing fitness (ln) (37 °C) | self-splicing fitness (ln) (30 °C)
CCGUAGCAAUAUUACGUCAC | -3.02 ± 0.75 | –
CGCUAGCAAUAUUACGCAGC | -2.8 ± 0.33 | –
GAUCAGCAAUAUUACGUCCU | -0.0507 ± 0.092 | -0.874 ± 0.1
GUGGAGCAAUAUUACGGCCA | – | -1.41 ± 0.63
CCAGAGCAAUAUUACGAUUA | -1.79 ± 0.53 | –
UGGAAGCAAUAUUACGAAAG | -0.893 ± 0.2 | -1.72 ± 0.16
CUUGAGCAAUAUUACGGCGA | -0.0848 ± 0.71 | -2.65 ± 1.1
CGAGAGCAAUAUUACGAAGA | -2.67 ± 0.62 | –
GCAGAGCAAUAUUACGACCC | -0.000218 ± 0.52 | -2.87 ± 1.1
UGGGAGCAAUAUUACGUGGG | -3.61 ± 0.73 | -3.45 ± 0.52
AGCUAGCAAUAUUACGCUCC | -1.49 ± 0.59 | -2.79 ± 1.2
CUUGAGCAAUAUUACGACUC | – | -2.67 ± 0.69
UCGCAGCAAUAUUACGCCCG | 0.00158 ± 0.65 | –
GCACAGCAAUAUUACGAAUG | -1.09 ± 0.063 | -1.89 ± 0.051
AGCCAGCAAUAUUACGCCUC | – | -2.47 ± 1.1
UAUGAGCAAUAUUACGCCCU | -0.44 ± 1.4 | -2.48 ± 1.1
CGGGAGCAAUAUUACGCGCA | – | -3.88 ± 1.1
CGUGAGCAAUAUUACGUCUU | -2.15 ± 0.8 | –
UAGGAGCAAUAUUACGGUCU | -2.44 ± 0.63 | –
CGACAGCAAUAUUACGCGAC | – | -4.48 ± 0.51
UUUUAGCAAUAUUACGGCCG | 0.19 ± 0.54 | –
UCGGAGCAAUAUUACGGAAC | -1.79 ± 0.51 | –
AGGAAGCAAUAUUACGCUUC | -2.08 ± 1.1 | –
UGCUAGCAAUAUUACGGAGA | – | -3.88 ± 0.73

Sequence | self-splicing fitness (ln) (37 °C) | self-splicing fitness (ln) (30 °C)
CCGCAGCAAUAUUACGCUCA | – | -2.81 ± 0.54
GAUGAGCAAUAUUACGUAGU | -2.04 ± 0.56 | –
UUAUAGCAAUAUUACGUAUU | – | -4.2 ± 0.59
UCUAAGCAAUAUUACGCGCC | – | -4 ± 0.59
UUUAAGCAAUAUUACGAAGU | – | -2.65 ± 1.1
UUACAGCAAUAUUACGAGGC | – | -2.84 ± 0.53
CGACAGCAAUAUUACGGCAC | -2.87 ± 0.53 | -2.39 ± 0.55
GUGAAGCAAUAUUACGGAGC | -1.38 ± 0.16 | -4.68 ± 0.46
UGAGAGCAAUAUUACGUCAG | – | -3.98 ± 0.59
GGAGAGCAAUAUUACGUGGA | – | -5.68 ± 1
UCUCAGCAAUAUUACGAAGC | -2.18 ± 0.67 | –
UACGAGCAAUAUUACGCGCU | – | -5.14 ± 0.58
UAGAAGCAAUAUUACGGCCC | 0.504 ± 1.2 | -1.54 ± 0.72
GCAUAGCAAUAUUACGUUAU | -3.08 ± 0.27 | -2.61 ± 0.16
CGUAAGCAAUAUUACGAAUA | -2.74 ± 0.61 | -3.71 ± 0.52
UUUCAGCAAUAUUACGCGAA | -1.21 ± 0.14 | -2.03 ± 0.14
GGGGAGCAAUAUUACGAUCA | -0.807 ± 0.19 | -1.45 ± 0.18
UGUCAGCAAUAUUACGGCUA | 0.327 ± 0.12 | 0.131 ± 0.094
GCAGAGCAAUAUUACGCACA | -1.66 ± 0.52 | –
UUCGAGCAAUAUUACGUCGA | -1.49 ± 0.19 | -5.01 ± 0.71
UCAGAGCAAUAUUACGCUGU | -2.33 ± 0.55 | –
UUUGAGCAAUAUUACGCCAC | – | -2.72 ± 0.57
CUACAGCAAUAUUACGUCCC | -2.84 ± 0.53 | -5.26 ± 1
GCAGAGCAAUAUUACGUUUA | -2.83 ± 0.61 | –

Quoted from the listing:
For self-splicing fitness (ln) (30 °C), UUUGAGCAAUAUUACGUUCA is listed with -3.55 ± 0.6
For self-splicing fitness (ln) (30 °C), UCUGAGCAAUAUUACGUACA is listed with -3.01 ± 0.83
For self-splicing fitness (ln) (37 °C), CCAGAGCAAUAUUACGAUUA is listed with -1.79 ± 0.53
For self-splicing fitness (ln) (37 °C), GGGGAGCAAUAUUACGAUCA is listed with -0.807 ± 0.19

Reformatted tab-delimited: part of the list above
Sequence	self-splicing fitness (ln) (37 °C)	self-splicing fitness (ln) (30 °C)
GUCGAGCAAUAUUACGAGAU	–	-4.44 ± 0.51
UAGAAGCAAUAUUACGGCCC	0.504 ± 1.2	-1.54 ± 0.72

More results.

Sequence | self-splicing fitness (ln) (37 °C) | self-splicing fitness (ln) (30 °C)
AUUGAGCAAUAUUACGCCAA | -0.98 ± 0.77 | -1.2 ± 0.59
UGUCAGCAAUAUUACGCUAC | -3.12 ± 0.74 | -4.12 ± 1
UCGAAGCAAUAUUACGCAAU | – | -4.21 ± 1
GUCGAGCAAUAUUACGAGCU | -0.78 ± 0.55 | –
UGGCAGCAAUAUUACGAAGC | – | -3.46 ± 0.75
ACUCAGCAAUAUUACGGAGC | -1.76 ± 0.17 | -3.55 ± 0.21
AAGGAGCAAUAUUACGCGGG | -2.54 ± 0.63 | –
GUGGAGCAAUAUUACGUCUG | – | -4.44 ± 0.59
CCGGAGCAAUAUUACGGCCA | -2.72 ± 0.79 | –
AGGCAGCAAUAUUACGACGG | -0.746 ± 0.22 | -2.49 ± 0.16
AGAGAGCAAUAUUACGAGUA | – | -3.32 ± 0.52
GUGAAGCAAUAUUACGUUUG | -1.85 ± 0.12 | -2.25 ± 0.09
GGGGAGCAAUAUUACGGGUC | -3.29 ± 0.6 | -3.58 ± 0.76
AGAGAGCAAUAUUACGGUUA | -1.83 ± 0.21 | -3.1 ± 0.25
UCAGAGCAAUAUUACGCCUC | -1.47 ± 0.87 | –
UCGAAGCAAUAUUACGCAAC | -2.78 ± 0.61 | –
UGAUAGCAAUAUUACGUCCC | 0.166 ± 0.75 | -1.73 ± 0.91
UAAGAGCAAUAUUACGGAUU | – | -3.88 ± 1.1
ACUGAGCAAUAUUACGUUGC | – | -4.87 ± 0.59
UAUCAGCAAUAUUACGAAAA | -0.123 ± 0.17 | -0.436 ± 0.13
AUGGAGCAAUAUUACGAUUG | -3.12 ± 0.33 | -2.3 ± 0.25
CGUGAGCAAUAUUACGGAAC | – | -3.57 ± 0.75
UAACAGCAAUAUUACGUGAA | -0.749 ± 0.083 | -1.61 ± 0.065
CUUGAGCAAUAUUACGCCGU | -1.99 ± 0.66 | –

Sequence | self-splicing fitness (ln) (37 °C) | self-splicing fitness (ln) (30 °C)
CGGUAGCAAUAUUACGCGAC | -0.988 ± 0.68 | -2.79 ± 1.2
CUUCAGCAAUAUUACGUCCC | – | -3.86 ± 0.74
GUUGAGCAAUAUUACGCUCU | -0.595 ± 0.78 | –
UCUGAGCAAUAUUACGAACU | -0.693 ± 0.71 | -3.23 ± 1
CGCGAGCAAUAUUACGCCAA | -0.727 ± 0.64 | –
GCGAAGCAAUAUUACGGUAC | -1.2 ± 0.15 | -2.89 ± 0.17
UGCGAGCAAUAUUACGAGAU | -3.21 ± 0.35 | -2.4 ± 0.33
UACCAGCAAUAUUACGAAUA | 0.199 ± 0.093 | -0.776 ± 0.086
GCGCAGCAAUAUUACGACAC | -0.194 ± 0.59 | -0.738 ± 0.38
GUCAAGCAAUAUUACGAUUG | – | -5.32 ± 0.51
ACAAAGCAAUAUUACGUGAG | -0.4 ± 0.079 | -0.439 ± 0.049
CCGUAGCAAUAUUACGGAUA | – | -4.1 ± 0.52
CCAUAGCAAUAUUACGAAAA | -3.63 ± 0.51 | –
UGGCAGCAAUAUUACGGCGC | -1.16 ± 0.58 | -3.54 ± 0.53
GUUGAGCAAUAUUACGCUAG | -2.29 ± 0.77 | –
GAAGAGCAAUAUUACGUCAG | -3.03 ± 0.35 | -3.58 ± 0.2
CUUCAGCAAUAUUACGCCCU | -1.76 ± 0.58 | -4.01 ± 0.53
UAUUAGCAAUAUUACGGUAC | 0.947 ± 1.1 | -4.04 ± 1.1
UAGGAGCAAUAUUACGGCCC | -2.22 ± 0.56 | -3.09 ± 0.75
UGCGAGCAAUAUUACGUCGG | – | -3.59 ± 0.61
GAUGAGCAAUAUUACGGGUU | -2.6 ± 0.27 | -2.39 ± 0.17
CCCAAGCAAUAUUACGAUAC | -4.17 ± 0.72 | –

Reference: the supplement of paper PMC7877785
